Reference: PubChem BioAssay AID743454 (Peter MacCallum Cancer Centre, 2014)
The whole screen tested about 18,000 reagents; shown is a random part of them. 450 of them (2.5%) count as active. 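Single biological run; no consistent viability z cut-off exists, so the class columns, not z-scores, define the calls.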

Test: 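Search for knock-downs that restore vorinostat killing in resistant colon cancer cells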 (primary screen)
Cells: human HCT116-VR colon cancer cells, selected for vorinostat resistance
Reagent: siRNA pool against human genes, 40 nM siRNA pool
Timing: vorinostat for 24 h, read-out about 72 h after transfection
Conditions: vorinostat at 2.5 µM final
Measured: 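Cell viability by CellTiter-Fluor and caspase 3/7 activity by luminescence, each scaled to mock wells per plate, duplicates averaged, then robust z-scored over all plates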
Scale: viability robust z-score: higher = more viable cells than screen typical; caspase robust z-score: higher = more caspase 3/7 activity than screen typical
Rule for the call: 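a knock-down is a hit when classed RV1 or RV2 for lowered viability, or CA1 or CA2 for caspase activation; those lethal without drug were dropped; hits were retested singly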

The opening 5 records as a preview:
Target gene	viability hit class	caspase hit class	viability robust z-score	caspase robust z-score	activity call
DROSHA (drosha ribonuclease III)	no change	no change	-0.17	-1.07	inactive
LGALS8 (galectin 8)	no change	no change	-0.17	0.22	inactive
CEP192 (centrosomal protein 192)	no change	no change	-0.34	0.24	inactive
CHGA (chromogranin A)	no change	no change	0.55	0.57	inactive
KDM2B (lysine demethylase 2B)	no change	no change	-1.54	0.76	inactive

Main list, repeating the preview:
Target gene	viability hit class	caspase hit class	viability robust z-score	caspase robust z-score	activity call
DROSHA (drosha ribonuclease III)	no change	no change	-0.17	-1.07	inactive
LGALS8 (galectin 8)	no change	no change	-0.17	0.22	inactive
CEP192 (centrosomal protein 192)	no change	no change	-0.34	0.24	inactive
CHGA (chromogranin A)	no change	no change	0.55	0.57	inactive
KDM2B (lysine demethylase 2B)	no change	no change	-1.54	0.76	inactive
UBASH3B (ubiquitin associated and SH3 domain containing B)	no change	no change	0.19	-0.68	inactive
FOLR2 (folate receptor beta)	no change	no change	-0.92	0.4	inactive
SNRK (SNF related kinase)	no change	no change	-0.36	2.68	inactive
PDCD6 (programmed cell death 6)	no change	no change	-0.6	-0.03	inactive
LINC02870 (long independently transcribed non-coding RNA 2870)	no change	no change	1.87	-0.84	inactive
BAZ2A (bromodomain adjacent to zinc finger domain 2A)	no change	no change	0.7	-0.23	inactive
RFPL4A (ret finger protein like 4A)	no change	no change	-0.05	1.84	inactive
GPRIN1 (G protein regulated inducer of neurite outgrowth 1)	no change	no change	-0.96	0.86	inactive
TECRL (trans-2,3-enoyl-CoA reductase like)	no change	no change	-0.46	-0.21	inactive
B4GALNT4 (beta-1,4-N-acetyl-galactosaminyltransferase 4)	no change	no change	-0.52	-0.82	inactive
FER1L6 (fer-1 like family member 6)	no change	no change	0.15	-0.86	inactive
PIK3IP1 (phosphoinositide-3-kinase interacting protein 1)	no change	no change	-1.06	2.26	inactive
ITPRIP (inositol 1,4,5-trisphosphate receptor interacting protein)	no change	no change	0.82	0.46	inactive
COL22A1 (collagen type XXII alpha 1 chain)	no change	no change	0.96	-0.17	inactive
CCDC107 (coiled-coil domain containing 107)	no change	no change	1.26	-0.96	inactive
RBMY1E (RNA binding motif protein Y-linked family 1 member E)	no change	no change	-0.3	-0.92	inactive
HMGB3 (high mobility group box 3)	no change	no change	1.5	-0.46	inactive
RPF1 (ribosome production factor 1 homolog)	no change	no change	-1.45	0.08	inactive
LMTK2 (lemur tail kinase 2)	no change	no change	0.86	3.18	inactive
PNRC2 (proline rich nuclear receptor coactivator 2)	no change	no change	0.53	-0.48	inactive
TRIM74 (tripartite motif containing 74)	no change	no change	0.9	-0.34	inactive
GRIN3A (glutamate ionotropic receptor NMDA type subunit 3A)	no change	no change	0.32	-0.94	inactive
MKI67 (marker of proliferation Ki-67)	no change	no change	-0.48	-0.38	inactive
ISG20 (interferon stimulated exonuclease gene 20)	no change	no change	-0.36	-0.5	inactive
TBC1D8B (TBC1 domain family member 8B)	no change	no change	0.34	1.01	inactive
SAR1B (secretion associated Ras related GTPase 1B)	RV2 (reduced viability)	no change	-3.99	3.25	active
DCLK3 (doublecortin like kinase 3)	no change	no change	-0.44	-0.52	inactive
AKR1B1 (aldo-keto reductase family 1 member B)	no change	no change	-0.84	-1.01	inactive
ADAMDEC1 (ADAM like decysin 1)	no change	no change	-0.03	0.3	inactive
ZC3H11A (zinc finger CCCH-type containing 11A)	no change	no change	-0.32	1.86	inactive
ETFA (electron transfer flavoprotein subunit alpha)	no change	no change	1.04	-0.42	inactive
LARGE2 (LARGE xylosyl- and glucuronyltransferase 2)	no change	no change	0.99	0.9	inactive
ZC3H18-DT (ZC3H18 divergent transcript)	no change	no change	-0.13	1.49	inactive
CORO2A (coronin 2A)	no change	no change	-0.4	0.04	inactive
KLHDC8A (kelch domain containing 8A)	no change	no change	-0.06	-0.38	inactive
BTN3A3 (butyrophilin subfamily 3 member A3)	no change	no change	-1.88	1.41	inactive
MAMDC4 (MAM domain containing 4)	no change	no change	0.34	-0.5	inactive
YOD1 (YOD1 deubiquitinase)	no change	no change	-1.71	-0.46	inactive
HNRNPA2B1 (heterogeneous nuclear ribonucleoprotein A2/B1)	no change	no change	-1.43	-0.89	inactive
SLC26A2	no change	no change	0.84	-0.7	inactive
GMPR2 (guanosine monophosphate reductase 2)	no change	no change	0.56	-0.04	inactive
FNBP1L (formin binding protein 1 like)	no change	no change	-1.13	-1.17	inactive
ANKRD28 (ankyrin repeat domain 28)	no change	no change	0.52	-0.2	inactive
USHBP1 (USH1 protein network component harmonin binding protein 1)	no change	no change	0.15	0.62	inactive
ZNF91 (zinc finger protein 91)	no change	no change	0.06	0.58	inactive
KLF4 (KLF transcription factor 4)	no change	no change	-0.49	1.22	inactive
ASPH (aspartate beta-hydroxylase)	no change	no change	0.3	0.01	inactive
GALNTL5 (polypeptide N-acetylgalactosaminyltransferase like 5)	no change	no change	0.88	-0.35	inactive
LRATD1 (LRAT domain containing 1)	no change	no change	1.73	-0.06	inactive
AFG2A (AAA ATPase AFG2A)	no change	no change	0.02	-0.74	inactive
ZNF32 (zinc finger protein 32)	no change	no change	-1.47	1.26	inactive
PDSS2 (decaprenyl diphosphate synthase subunit 2)	no change	no change	0.84	-0.34	inactive
